Data published in patent US20080279855A1, “Dna Replication Modulating Peptides, Nucleic Acids Encoding Them, and Their Use in Pharmaceutical Compositions” (CENTRE NATIONAL DE LA RECHERCHE SCIENTIFIQUE, priority 2004, published 2008).
These are yes or no findings as the source states them, for the method shown. Some results given as binding are weak or reduced against the parent protein; the word gives no strength.

Assays:
HsGem(80-212) (human) [1] = target: HsGem(80-212) (human) (UniProt O75496); test: sucrose gradient centrifugation
HsGem(80-212) (human) [2] = target: HsGem(80-212) (human) (UniProt O75496); test: sucrose gradient centrifugation, SDS-PAGE, Coomassie scan

B1: HsGem(80-212) (protein)
chain: GVTQESFDLMIKENPSSQYWKEVAEKRRKALYEALKENEKLHKEIEQKDNEIARLKKENKELAEVAEHVQYMAELIERLNGEPLDNFESLDNQEFDSEEETVEDSLVEDSEIGTCAEGTVSSSTDAKPCI
- binding (HsGem(80-212) (human) [1]): binds
- binding (HsGem(80-212) (human) [2]): binds
